Results are given in words; binding and its absence hold for the method and conditions named. For some of these results: Binding seen in cells or lysates may run through a third protein. Some binding calls cover weakened binding; strength is not graded here. For some of these results: Sequences can lack the tags named with a protein.

Assay [1] concerns the target T1, E47 amino acids 477-530 bait (54-amino acid region of E47) (UniProt P15923).
T1 sequence (looked up): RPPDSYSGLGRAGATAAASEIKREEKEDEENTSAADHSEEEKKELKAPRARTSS
The assay is described as follows: yeast two-hybrid interaction trap.

The target in assay [2] is T2, LexA-E47477-651 (UniProt P15923).
T2 sequence (looked up): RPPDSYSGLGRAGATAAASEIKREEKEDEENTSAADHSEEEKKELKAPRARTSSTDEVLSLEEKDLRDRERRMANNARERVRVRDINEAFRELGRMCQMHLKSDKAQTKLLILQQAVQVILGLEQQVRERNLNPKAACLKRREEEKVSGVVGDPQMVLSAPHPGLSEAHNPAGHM
The assay is described as follows: yeast two-hybrid interaction trap.

Assay [3] addresses T2, LexA-E47477-651. The assay is described as follows: yeast two-hybrid interaction trap, beta-galactosidase assay.
For assay [4], the target named is in vitro translated E12 protein (UniProt P15923). The assay is described as follows: co-immunoprecipitation of in vitro translated proteins with an anti-E12 antibody.
In assay [5] the target is GST-E121-654 (human) (UniProt P15923). The assay can be described thus: GST pull-down of 35S-labeled in vitro translated UBCE2A on glutathione-Sepharose beads.
For assay [6], the target named is GST-E12477-654 (human) (UniProt P15923). The assay is described as above.
The target of assay [7] is T3, Id3 (clone of the rat aorta cDNA library, activation-domain fusion) (rat) (UniProt P41138).
T3 sequence (looked up): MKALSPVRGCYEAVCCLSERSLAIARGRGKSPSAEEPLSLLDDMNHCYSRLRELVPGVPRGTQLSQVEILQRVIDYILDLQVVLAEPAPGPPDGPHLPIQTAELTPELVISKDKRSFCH
The assay can be described thus: yeast two-hybrid interaction trap.

In the case of “AD-UBCE2A (full-length UBCE2A fused to the B42 transcription activation domain) (from UniProt P63279 1-158) (enzyme)”, the binding entry in assay [1], in assay [2] and in assay [3] was “binds” each time.

As for “[35S]methionine-labeled in vitro translated UBCE2A (from UniProt P63279 1-158) (enzyme)”, the binding entry in assay [4], in assay [5] and in assay [6] was “binds” throughout.

Regarding “LexA-E12539-654 (from UniProt P15923 539-654)”, in assay [7], the binding entry is given as “binds”.

These data come from patent publication US20020128189A1, “Ubiquitination of the transcription factor E2A” (President and Fellows of Harvard College, a Massachusetts …, priority 1996, published 2002).
